{"sequences": {"note": "Protein sequences, listed by entry. Tags and fused reporters are not part of them.", "UniProt Q8K3V1": "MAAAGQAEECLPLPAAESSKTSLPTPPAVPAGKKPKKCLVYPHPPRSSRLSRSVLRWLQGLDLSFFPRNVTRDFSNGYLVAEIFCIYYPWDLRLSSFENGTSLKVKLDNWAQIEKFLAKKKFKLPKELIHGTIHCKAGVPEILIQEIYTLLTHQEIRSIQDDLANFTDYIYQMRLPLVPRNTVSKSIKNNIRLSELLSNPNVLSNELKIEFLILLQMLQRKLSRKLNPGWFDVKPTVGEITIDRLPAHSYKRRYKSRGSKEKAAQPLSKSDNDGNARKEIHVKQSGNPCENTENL", "UniProt Q8C9J3": "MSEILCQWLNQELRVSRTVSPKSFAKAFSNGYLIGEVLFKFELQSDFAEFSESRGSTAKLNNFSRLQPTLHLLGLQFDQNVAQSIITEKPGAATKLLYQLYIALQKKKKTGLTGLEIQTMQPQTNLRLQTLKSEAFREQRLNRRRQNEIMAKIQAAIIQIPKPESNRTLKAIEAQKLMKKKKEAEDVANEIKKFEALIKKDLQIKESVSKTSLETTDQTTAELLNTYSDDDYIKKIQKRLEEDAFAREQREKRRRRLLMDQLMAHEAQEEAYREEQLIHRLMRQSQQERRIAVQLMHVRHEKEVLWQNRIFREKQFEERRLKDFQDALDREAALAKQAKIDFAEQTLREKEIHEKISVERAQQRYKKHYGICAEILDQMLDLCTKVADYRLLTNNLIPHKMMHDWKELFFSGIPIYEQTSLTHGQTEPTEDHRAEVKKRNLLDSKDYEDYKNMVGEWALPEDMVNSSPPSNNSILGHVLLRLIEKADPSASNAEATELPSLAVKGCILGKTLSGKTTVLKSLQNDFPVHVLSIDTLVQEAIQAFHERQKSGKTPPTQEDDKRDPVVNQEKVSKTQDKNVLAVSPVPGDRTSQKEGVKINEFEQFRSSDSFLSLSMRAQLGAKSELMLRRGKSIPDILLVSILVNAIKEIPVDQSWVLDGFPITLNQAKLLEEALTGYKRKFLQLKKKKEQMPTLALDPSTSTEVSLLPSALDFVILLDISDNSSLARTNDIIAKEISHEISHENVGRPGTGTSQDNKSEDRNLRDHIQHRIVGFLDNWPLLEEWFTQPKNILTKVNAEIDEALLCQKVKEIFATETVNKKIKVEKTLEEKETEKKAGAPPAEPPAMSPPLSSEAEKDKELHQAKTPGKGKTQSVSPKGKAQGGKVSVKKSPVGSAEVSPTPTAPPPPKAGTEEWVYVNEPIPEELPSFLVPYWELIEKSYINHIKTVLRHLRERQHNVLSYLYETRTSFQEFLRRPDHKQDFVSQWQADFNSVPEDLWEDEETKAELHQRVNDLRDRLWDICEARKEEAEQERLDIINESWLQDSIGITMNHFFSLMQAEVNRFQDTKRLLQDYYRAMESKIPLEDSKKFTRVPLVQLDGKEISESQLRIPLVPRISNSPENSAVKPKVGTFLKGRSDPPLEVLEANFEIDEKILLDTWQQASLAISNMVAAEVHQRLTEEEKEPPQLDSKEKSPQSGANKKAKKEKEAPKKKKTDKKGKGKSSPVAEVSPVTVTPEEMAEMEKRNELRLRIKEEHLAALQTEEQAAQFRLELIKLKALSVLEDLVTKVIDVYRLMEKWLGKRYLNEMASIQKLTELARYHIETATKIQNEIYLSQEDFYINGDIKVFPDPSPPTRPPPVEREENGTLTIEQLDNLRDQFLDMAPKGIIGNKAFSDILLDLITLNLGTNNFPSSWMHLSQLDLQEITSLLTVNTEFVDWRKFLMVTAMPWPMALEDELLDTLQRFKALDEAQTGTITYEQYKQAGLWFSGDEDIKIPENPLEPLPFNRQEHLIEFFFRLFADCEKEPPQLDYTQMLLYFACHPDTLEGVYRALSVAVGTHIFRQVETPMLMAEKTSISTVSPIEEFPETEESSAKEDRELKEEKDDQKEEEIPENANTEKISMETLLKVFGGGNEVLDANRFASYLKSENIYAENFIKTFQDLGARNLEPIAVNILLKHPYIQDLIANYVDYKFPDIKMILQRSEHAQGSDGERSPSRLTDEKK", "UniProt A0A0G2JEB6": "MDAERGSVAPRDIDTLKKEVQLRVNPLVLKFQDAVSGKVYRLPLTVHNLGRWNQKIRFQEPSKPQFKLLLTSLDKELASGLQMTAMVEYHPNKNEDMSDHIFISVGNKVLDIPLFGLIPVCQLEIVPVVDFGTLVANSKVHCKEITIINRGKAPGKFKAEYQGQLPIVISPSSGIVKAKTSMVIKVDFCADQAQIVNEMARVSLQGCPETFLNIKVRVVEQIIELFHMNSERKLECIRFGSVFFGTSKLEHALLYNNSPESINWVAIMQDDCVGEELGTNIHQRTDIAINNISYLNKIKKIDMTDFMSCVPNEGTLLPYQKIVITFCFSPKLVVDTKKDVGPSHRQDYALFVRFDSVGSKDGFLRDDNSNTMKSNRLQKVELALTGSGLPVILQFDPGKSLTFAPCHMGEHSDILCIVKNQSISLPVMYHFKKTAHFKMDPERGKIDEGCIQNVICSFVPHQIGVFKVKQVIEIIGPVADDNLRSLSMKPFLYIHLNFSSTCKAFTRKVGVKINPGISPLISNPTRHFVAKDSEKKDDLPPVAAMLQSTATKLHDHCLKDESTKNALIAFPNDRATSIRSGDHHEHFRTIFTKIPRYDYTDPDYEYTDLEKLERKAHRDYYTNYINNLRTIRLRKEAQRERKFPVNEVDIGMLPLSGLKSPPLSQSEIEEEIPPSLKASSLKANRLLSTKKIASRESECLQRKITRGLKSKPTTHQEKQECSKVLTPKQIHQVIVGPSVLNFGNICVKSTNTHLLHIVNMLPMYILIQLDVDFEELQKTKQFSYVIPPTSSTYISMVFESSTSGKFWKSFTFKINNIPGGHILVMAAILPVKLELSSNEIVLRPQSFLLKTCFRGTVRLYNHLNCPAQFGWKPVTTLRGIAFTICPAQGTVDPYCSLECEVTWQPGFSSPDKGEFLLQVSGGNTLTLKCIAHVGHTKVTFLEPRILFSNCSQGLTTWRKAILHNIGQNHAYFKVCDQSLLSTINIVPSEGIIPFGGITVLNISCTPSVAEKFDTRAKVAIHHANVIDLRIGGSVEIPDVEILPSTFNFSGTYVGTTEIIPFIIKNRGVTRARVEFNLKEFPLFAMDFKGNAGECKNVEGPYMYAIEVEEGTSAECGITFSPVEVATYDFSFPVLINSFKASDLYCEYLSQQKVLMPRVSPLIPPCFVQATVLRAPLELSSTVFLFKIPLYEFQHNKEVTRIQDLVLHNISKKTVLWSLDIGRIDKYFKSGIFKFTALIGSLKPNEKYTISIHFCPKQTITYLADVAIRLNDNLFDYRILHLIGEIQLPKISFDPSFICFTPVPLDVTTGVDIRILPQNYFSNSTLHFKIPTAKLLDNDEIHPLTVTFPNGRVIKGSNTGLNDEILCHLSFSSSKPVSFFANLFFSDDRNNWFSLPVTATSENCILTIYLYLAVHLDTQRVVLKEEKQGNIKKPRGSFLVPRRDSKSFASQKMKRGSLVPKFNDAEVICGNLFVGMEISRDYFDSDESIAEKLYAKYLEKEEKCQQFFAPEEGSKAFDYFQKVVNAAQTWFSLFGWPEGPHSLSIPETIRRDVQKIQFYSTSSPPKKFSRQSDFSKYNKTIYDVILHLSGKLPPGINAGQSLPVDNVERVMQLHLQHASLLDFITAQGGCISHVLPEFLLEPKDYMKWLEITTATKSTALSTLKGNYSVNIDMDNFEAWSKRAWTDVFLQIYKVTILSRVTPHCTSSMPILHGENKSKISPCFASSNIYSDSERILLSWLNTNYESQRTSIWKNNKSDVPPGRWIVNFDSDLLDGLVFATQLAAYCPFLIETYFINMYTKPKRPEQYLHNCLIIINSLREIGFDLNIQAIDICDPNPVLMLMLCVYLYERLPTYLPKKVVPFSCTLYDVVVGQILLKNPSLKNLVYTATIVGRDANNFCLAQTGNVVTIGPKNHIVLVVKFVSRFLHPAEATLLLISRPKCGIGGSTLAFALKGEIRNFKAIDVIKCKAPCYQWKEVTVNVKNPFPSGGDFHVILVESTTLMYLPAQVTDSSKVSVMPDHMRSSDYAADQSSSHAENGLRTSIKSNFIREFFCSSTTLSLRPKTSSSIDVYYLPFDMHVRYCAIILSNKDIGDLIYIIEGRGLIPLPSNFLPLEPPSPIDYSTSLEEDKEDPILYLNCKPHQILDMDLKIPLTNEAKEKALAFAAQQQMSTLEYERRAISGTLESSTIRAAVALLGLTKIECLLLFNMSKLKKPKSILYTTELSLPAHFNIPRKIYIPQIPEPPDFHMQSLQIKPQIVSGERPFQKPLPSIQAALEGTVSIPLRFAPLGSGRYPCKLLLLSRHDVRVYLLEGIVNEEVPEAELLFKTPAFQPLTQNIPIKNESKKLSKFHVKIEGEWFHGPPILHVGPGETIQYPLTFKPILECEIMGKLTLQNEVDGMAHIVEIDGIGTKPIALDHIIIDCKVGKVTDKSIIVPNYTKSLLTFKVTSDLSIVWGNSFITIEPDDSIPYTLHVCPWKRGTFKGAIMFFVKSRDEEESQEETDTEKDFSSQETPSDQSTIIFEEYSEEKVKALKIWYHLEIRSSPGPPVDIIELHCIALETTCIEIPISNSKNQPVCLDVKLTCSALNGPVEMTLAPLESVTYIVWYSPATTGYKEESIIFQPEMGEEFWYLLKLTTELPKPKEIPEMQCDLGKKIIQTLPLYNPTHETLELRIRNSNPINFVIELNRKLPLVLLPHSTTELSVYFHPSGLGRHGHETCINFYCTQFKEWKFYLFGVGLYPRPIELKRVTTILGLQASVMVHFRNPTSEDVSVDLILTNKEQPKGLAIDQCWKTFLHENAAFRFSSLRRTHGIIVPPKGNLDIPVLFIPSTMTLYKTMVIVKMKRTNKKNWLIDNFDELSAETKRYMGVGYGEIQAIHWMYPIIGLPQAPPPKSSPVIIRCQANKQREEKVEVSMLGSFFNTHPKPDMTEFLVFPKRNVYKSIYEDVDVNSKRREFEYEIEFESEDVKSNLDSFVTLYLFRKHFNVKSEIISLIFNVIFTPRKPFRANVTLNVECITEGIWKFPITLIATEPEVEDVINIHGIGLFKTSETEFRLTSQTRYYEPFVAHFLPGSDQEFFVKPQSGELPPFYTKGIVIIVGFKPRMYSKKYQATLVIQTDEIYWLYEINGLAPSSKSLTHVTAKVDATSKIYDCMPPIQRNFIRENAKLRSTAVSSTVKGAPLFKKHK"}, "source": "paper PMC12297659", "about": "“In situ structure of the mouse sperm central apparatus reveals mechanistic insights into asthenozoospermia” (Cell Research, 2025)", "molecules": {"B1": {"name": "SPAG16 (natural protein, mouse (endogenous in sperm), UniProt Q8K450 1-639, looked up)", "chain": "MAAPSGVPPLRVLEELGIGLSPTGEVTEAVTSEGAYYLEQVTITETSEDECEYEEIPDDNFSIPEGEEDLEKAIHIIGEQARDIHILEQQTILPARNVMQEAIEDFLCNFLIKMGMTRTLDCFQAEWYELIQKKGSDFKGLGNVPDVYSQVMLLETENKNLKKELKHFKQAAEKAKEDLLRTQKERDFHRMHHKRIVQEKNKLIADLKGLKLHYASYEPTIRVLHEKHHALLKEKMLTSLERDRAVGKISGLQATLKNIDMGHIQVPVIKGSYESASITRESGDRAGHSCEKENSSEGPTQKSLREAREEVGYKSKLKNEKKDSEFPVDMQPDPNVTSCTENVSAAKFDYKLNNIFRLHELPVSCIVMHPCRDYLISCSEDRLWKMVGLPQGNVLLTGSGHTDWLSGCCFHPSGSKLATSSGDSTIKLWDLNKGECTLTLEGHNHAVWSCTWHSCGDFVASASLDMTSKIWDVNSERCRYTLYGHTDSVNSIEFFPFSNILLTASADKTLSVWDARTGKCEQSLYGHMHSVNDATFTPRGHIIASCDARGVTKLWDFRKLIPIVSIDVGPSSGNEVNFDQSGRVLAQASANGIIHLLDLKSGQIHKLVGHESEVHSVVFSHLGENLYSGGSDGTIRLWI", "notes": "SPAG16, mouse, with a coiled-coil domain and a C-terminal β-propeller domain; Adjacent copies dimerise through the coiled-coil domain; also called PF20 homolog; source: endogenous, in intact mouse sperm (cryo-FIB lamellae)"}, "B2": {"name": "KIF9 (protein, UniProt Q9WV04 1-790)", "chain": "MGTRKKVQAFVRVRPTDDFAHEMIKYGEDNKSIDIHLKKDTRRGVVNNQQTDWSFKLDGVLHNASQDLVYETVAKDAVSQALDGYNGTIMCYGQTGAGKTYTMTGATENYKHRGILPRALQQVFRMIEERPTHAITVRVSYLEIYNENLFDLLSTLPYVGPSVTPMTIVENPQGIFIKGLSVHLTSQEEDAFSLLFEGETNRIIASHTMNKNSSRSHCIFTIYMEAHSRTLSDEKYITSKINLVDLAGSERLSKTGSEGRVLKEATYINKSLSFLEQAIIALGDQNRDHVPFRQSKLTHALKDSLGGNCNMVLVTNIYGEAAQLDETLSSLRFASRMKLVTTEPAINEKYDAERMVKNLEKELALLKQELAIHDSLSNRTLVNYDPMDEIQIAEINSQVRRYLEGTLDEIDIINLRQIQEVFNQFRVVLSQQEQEVESALRRKYTLIDKNDFAAISAVQKVGLMDIEGNLVGEPDGQSFGLGVAPFSVKPGKKPKTKKTPKDQFSSSARKEGASSPVSGKDFDVASISKTQLIPSSKDGDLKDMLARERETSSIEPLISDSPKEELRAPRPSTPPSRTVAFEEFKNERGSEINRIFKENKSILNERKKRASETTQRINAIKQEIDETKDALNFQKSLREKQGEYENKGLMIIDEEEFLLILKLKDLKKQYRNEYQELRDLRAEIQYCQRLVDQCRHRLLMEFDIWYNESFMIPEDVQVALKLGSSIRPGMVPISRIVCLGEDDQDRFSHLQQTVLPEGLDSITFYNAKVKTDQKHNYMKTMVGLQQSHRK"}, "B3": {"name": "SPATA17 (protein, UniProt Q9D552 1-379)", "chain": "METNSNNFGELQELKDMATLAKLLARAPFLESQYYFRNRAVDSFRKFENDAAVMIQSWFRGCQVRAYMRHLNRVVTIIQKWWRSYLGRKFYQLVVEAAYYTMKMNLYNEMAVRIQRRWRGFRIRKYCFNYYYLKEYLRAVSETNDAIREALEEFAEMKEREERKVLLEREEKQKDYQARKMHYLLSTKQISGIYNSPFREHPDPWELRLQKAKPLGHQKYTAEKGKTSQSPSNWLACTSVHSFPQSESLPPISRKRCQGPFRDINEVLEQRYKPLEPTLRVAEPINHLRLAREAFKQEERMRNVQDKMFLPFSSYHKKEKYIPMIHSSSAYNSDSYGQKHFRSQDSKKWISDKDFQTVLPSFQLFSKYGKLYSKAGEIV"}}, "test_in_all_cases": "cryo-EM structure; in situ cryo-electron tomography with subtomogram averaging of about 200 nm cryo-FIB lamellae of wild-type mouse sperm; local maps of 5.5 Å to 18 Å; AlphaFold2 models fitted into the density", "key": {"[1]": {"biological_target": "HYDIN (mouse (endogenous in sperm)) (UniProt Q80W93)"}, "[2]": {"biological_target": "T1, SPAG6 (mouse (endogenous in sperm)) (UniProt Q9JLI7)", "T1 sequence": "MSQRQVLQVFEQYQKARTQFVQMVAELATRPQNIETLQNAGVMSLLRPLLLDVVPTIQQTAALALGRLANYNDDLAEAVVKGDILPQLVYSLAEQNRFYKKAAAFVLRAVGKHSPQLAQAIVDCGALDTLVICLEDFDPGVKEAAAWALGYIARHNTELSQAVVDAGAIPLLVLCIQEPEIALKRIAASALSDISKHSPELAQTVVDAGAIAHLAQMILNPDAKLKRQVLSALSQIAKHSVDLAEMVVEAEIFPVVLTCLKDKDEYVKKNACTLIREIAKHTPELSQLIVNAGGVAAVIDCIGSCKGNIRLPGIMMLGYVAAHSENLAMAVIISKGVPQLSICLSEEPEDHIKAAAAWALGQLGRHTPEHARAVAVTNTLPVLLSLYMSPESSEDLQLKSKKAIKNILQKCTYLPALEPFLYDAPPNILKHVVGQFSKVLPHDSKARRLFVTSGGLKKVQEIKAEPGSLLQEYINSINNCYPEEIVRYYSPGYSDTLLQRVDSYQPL"}, "[3]": {"biological_target": "T2, CFAP69 (mouse (endogenous in sperm)) (UniProt Q8BH53)", "T2 sequence": "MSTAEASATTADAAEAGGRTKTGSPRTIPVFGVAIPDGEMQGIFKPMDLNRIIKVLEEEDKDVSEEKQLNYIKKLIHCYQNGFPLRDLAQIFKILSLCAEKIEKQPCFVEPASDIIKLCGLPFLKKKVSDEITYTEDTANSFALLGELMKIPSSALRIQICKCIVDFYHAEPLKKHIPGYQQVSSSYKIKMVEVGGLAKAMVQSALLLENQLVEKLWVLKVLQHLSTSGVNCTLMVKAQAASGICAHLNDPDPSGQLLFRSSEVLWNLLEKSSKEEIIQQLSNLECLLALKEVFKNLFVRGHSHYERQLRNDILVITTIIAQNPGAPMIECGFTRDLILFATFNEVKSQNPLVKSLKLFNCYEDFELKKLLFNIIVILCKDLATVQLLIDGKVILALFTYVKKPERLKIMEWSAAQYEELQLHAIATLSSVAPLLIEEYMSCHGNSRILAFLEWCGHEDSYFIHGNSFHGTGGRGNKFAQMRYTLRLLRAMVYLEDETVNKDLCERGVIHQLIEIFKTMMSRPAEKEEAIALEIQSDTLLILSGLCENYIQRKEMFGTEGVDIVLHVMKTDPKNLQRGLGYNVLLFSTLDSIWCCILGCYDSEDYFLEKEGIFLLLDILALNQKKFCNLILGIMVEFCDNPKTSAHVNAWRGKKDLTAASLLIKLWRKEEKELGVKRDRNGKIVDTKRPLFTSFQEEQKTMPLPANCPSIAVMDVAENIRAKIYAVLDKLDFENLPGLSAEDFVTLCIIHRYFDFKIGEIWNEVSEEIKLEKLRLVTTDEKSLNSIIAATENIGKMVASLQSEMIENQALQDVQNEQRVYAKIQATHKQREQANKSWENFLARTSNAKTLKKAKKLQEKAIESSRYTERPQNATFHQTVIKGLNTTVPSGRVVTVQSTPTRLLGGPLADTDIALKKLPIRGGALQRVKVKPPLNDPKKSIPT"}, "[4]": {"biological_target": "T3, LRGUK (mouse (endogenous in sperm)) (UniProt Q9D5S7)", "T3 sequence": "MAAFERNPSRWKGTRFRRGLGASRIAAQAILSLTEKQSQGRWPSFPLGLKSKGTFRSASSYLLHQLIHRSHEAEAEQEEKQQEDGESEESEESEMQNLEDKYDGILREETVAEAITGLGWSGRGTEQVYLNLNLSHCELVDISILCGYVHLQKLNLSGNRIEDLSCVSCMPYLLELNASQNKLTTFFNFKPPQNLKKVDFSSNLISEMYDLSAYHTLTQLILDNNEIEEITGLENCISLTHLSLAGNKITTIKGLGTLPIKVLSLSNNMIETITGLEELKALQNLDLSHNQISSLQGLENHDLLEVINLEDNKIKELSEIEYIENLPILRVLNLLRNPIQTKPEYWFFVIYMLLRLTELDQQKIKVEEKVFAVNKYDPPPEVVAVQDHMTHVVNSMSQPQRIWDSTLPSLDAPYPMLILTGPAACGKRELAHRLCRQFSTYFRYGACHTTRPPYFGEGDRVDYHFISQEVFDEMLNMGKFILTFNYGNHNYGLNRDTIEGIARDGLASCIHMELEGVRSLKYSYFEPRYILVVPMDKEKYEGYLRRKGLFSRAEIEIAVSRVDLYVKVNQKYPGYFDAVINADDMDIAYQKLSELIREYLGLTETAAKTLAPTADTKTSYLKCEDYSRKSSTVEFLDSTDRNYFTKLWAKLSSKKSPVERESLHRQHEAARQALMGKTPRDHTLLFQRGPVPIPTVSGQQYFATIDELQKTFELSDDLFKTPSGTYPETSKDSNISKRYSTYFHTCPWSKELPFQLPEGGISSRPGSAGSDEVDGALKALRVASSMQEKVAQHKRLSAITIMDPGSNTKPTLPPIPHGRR"}, "[5]": {"biological_target": "T4, SPAG16 (mouse (endogenous in sperm)) (UniProt Q8K450)", "T4 sequence": "B1 chain"}, "[6]": {"biological_target": "SPATA4 (mouse (endogenous in sperm)) (UniProt Q8K3V1)"}, "[7]": {"biological_target": "CFAP65 (mouse (endogenous in sperm)) (UniProt Q3V0B4)"}, "[8]": {"biological_target": "T1, SPAG6 (mouse (endogenous in sperm))", "remark": "listed apart in the source"}}, "note": "Read-outs that look alike come from different tables or passages of the source. Results are given in words; binding and its absence hold for the method and conditions named. Some binding calls cover weakened binding; strength is not graded here."}
{"molecule": "SPEF2 (from UniProt Q8C9J3 1-1724)", "values": [{"measurement": "binding", "setting": "[1]", "result": "binds"}, {"measurement": "binding", "setting": "[2]", "result": "binds"}, {"measurement": "binding", "setting": "[3]", "result": "binds"}, {"measurement": "binding", "setting": "[4]", "result": "binds"}]}
{"molecule": "CFAP47 (from UniProt A0A0G2JEB6 1-3184)", "values": [{"measurement": "binding", "setting": "[5]", "result": "binds"}]}
{"molecule": "B1", "values": [{"measurement": "binding", "setting": "[6]", "result": "binds"}]}
{"molecule": "B2", "values": [{"measurement": "binding", "setting": "[7]", "result": "binds"}]}
{"molecule": "B3", "values": [{"measurement": "binding", "setting": "[8]", "result": "binds"}]}
